Some of the results follow. These are further read-outs of the screen, such as a control signal, another cell line or another target. No call is given for them. Compounds called inactive in the main read-out are mostly missing here. Potencies come from curve fits of mixed quality, noted in brackets.
Test: qHTS Assay for Lipid Storage Modulators in Drosophila S3 Cells;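 on cell number change: cells counted by Cell Tracker Red CMTPX staining in the red channel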
Details: BODIPY lipid droplet fluorescence, 18-24 h; for cell number change: measured here: cell count max response, cells fed with added oleic acid
Method in brief: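 Drosophila S3 cells got compounds at several concentrations plus oleic acid (400 uM solution). Laser-scanning cytometry with 488 nm excitation read lipid droplets at 500-530 nm and cells at 575-640 nm. Percent activity was relative to 20 uM Triacsin C.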

[1] = measured here: lipid fluorescence (Fed channel) AC50, cells fed with added oleic acid
[2] = measured here: cell number channel AC50, cells fed with added oleic acid

SMILES | cell number change [%] | AC50 [1] | AC50 [2]
COc1ccc(C2CC(c3ccccc3)=NN2C(=O)CN2CCN(Cc3ccccc3)CC2)cc1 (configuration not stated) | 22.5 | 1.84 µM [falling, partial curve] | –
Cc1occc1C(=O)NNC(=O)c1cccc(F)c1 | 20.5 | – | –
O=C(COC(=O)Cc1ccc(Cl)cc1Cl)NCCC1=CCCCC1 | -36.8 | – | 0.00461 µM [rising, full curve, poor fit]
CC(C)c1ccccc1NC(=O)Cn1c(/C=C/c2ccccc2)nc2ccccc21 | -19.8 | 16.4 µM [falling, partial curve, poor fit] | –
COc1ccc(OC)c(NC(=O)CN2C(=O)CSc3ccc(S(=O)(=O)N4CCCC4)cc32)c1 | -1.65 | – | –
CCc1ccc2nc(NC(=O)C3CSC4(C)CCC(=O)N34)sc2c1 (configuration not stated) | 48.7 | – | 20.6 µM [rising, single point]
Cc1nc2ccccc2cc1O | -5.98 | – | 1.3 µM [falling, partial curve]
COC(=O)C1=C(C)NC(C)=C(C(=O)OC)C1c1ccccc1[N+](=O)[O-] | -1.35 | – | –
COc1ccc(/C=N/NC(=O)COc2ccccc2-c2ccccc2)cc1 | 2.6 | – | 0.517 µM [falling, single point]
CCOC(=O)C(/C=C(\C#N)C(=O)OCC)=C(/N)N1CCN(c2ccc(Cl)cc2)CC1 | 36.3 | 6.51 µM [rising, single point] | 2.59 µM [rising, full curve]
CC1CN(C(=O)CCNC(=O)c2ccc(Br)cc2)CC(C)O1 (configuration not stated) | -3.85 | 4.11 µM [falling, single point] | 6.51 µM [falling, single point]
O=C(OCCC1Oc2cccnc2NC1=O)c1ccc([N+](=O)[O-])cc1 (configuration not stated) | 26.1 | 23.1 µM [rising, single point] | –
CC1CN(C(=O)CSc2nnc(NC(=O)NC(C)(C)C)s2)CC(C)O1 (configuration not stated) | -48.7 | 1.64 µM [falling, partial curve] | 10.3 µM [falling, partial curve]
Cc1ccccc1C(=O)NC1CCCCCCC1 | -9.45 | 3.66 µM [rising, full curve] | –
N=C1S/C(=C\c2ccc(-c3cccc(Cl)c3)o2)C(=O)N1c1nccs1 | -31.7 | 11.6 µM [falling, partial curve] | 6.51 µM [falling, partial curve]
Cc1ccc(C)c(NC(=S)NNC(=O)c2ccco2)c1 | -0.521 | 9.2 µM [rising, partial curve] | –
O=C(O)C1CC=CCC1C(=O)NCCc1cccc(Cl)c1 (configuration not stated) | 27.3 | – | –
CN(CCCC(=O)Nc1ccccc1F)S(=O)(=O)c1ccc(F)cc1 | 7.98 | – | –
Cc1cc(C)nc(SCC(=O)OCN2C(=O)c3ccccc3C2=O)n1 | 2 | 0.00517 µM [falling, full curve, poor fit] | –
COc1ccc(C(C(=O)NC(C)(C)C)N(C(=O)CNC(=O)c2cccs2)c2cccnc2)cc1OC (configuration not stated) | 4.78 | – | –

Given field by field: part of the list above
Cc1cc(C)nc(SCC(=O)OCN2C(=O)c3ccccc3C2=O)n1
  cell number change [%]: 2
  AC50 [1]: 0.00517 µM [falling, full curve, poor fit]
COc1ccc(C(C(=O)NC(C)(C)C)N(C(=O)CNC(=O)c2cccs2)c2cccnc2)cc1OC (configuration not stated)
  cell number change [%]: 4.78

Next part.

SMILES | cell number change [%] | AC50 [1] | AC50 [2]
CN(/N=C/c1cc(Cl)cc(Cl)c1O)C(=S)NC(C)(C)C | 14.5 | – | –
Cc1ccc(C)c(NC(=O)C[n+]2ccccc2)c1 | 31.4 | – | 16.4 µM [rising, partial curve, poor fit]
O=C(O)c1cc(NC(=S)NC(=O)C(c2ccccc2)c2ccccc2)ccc1Cl | 6.36 | 0.146 µM [falling, full curve, poor fit] | –
COc1nc(NCc2cccnc2)nc(NC2CCCCC2)n1 | 46.8 | 1.03 µM [rising, full curve] | 6.51 µM [rising, partial curve]
NC(=O)C(F)(F)C12OC3C4C5CC(C6C5C3C61)C42 (configuration not stated) | -18.6 | – | –
O=C(OCCOc1ccccc1)c1cc(S(=O)(=O)N2CCOCC2)ccc1Cl | 14.2 | 0.0291 µM [rising, full curve] | –
Oc1ccc2ccccc2c1CN1CCCC1 | 3.69 | 0.58 µM [rising, partial curve] | –
O=C(Nc1cccc(NC(=O)c2ccc(-c3cccc(Br)c3)o2)c1)c1ccco1 | -0.287 | 6.51 µM [falling, single point] | –
COc1ccccc1C1NC(c2ccccc2OC)C(C)C(=O)C1C (configuration not stated) | -8.44 | – | –
Cc1cc(N2CCC(C(=O)N3CCN(c4cccc(C)c4C)CC3)CC2)n2ncnc2n1 | 3.85 | – | 1.84 µM [rising, partial curve]
CC(=O)Nc1ccc(NC(=O)C/C(C)=N/NC(=O)COc2cc(C)c(Br)cc2Br)cc1 | 30.2 | 29.1 µM [rising, single point] | 29.1 µM [rising, single point]
NC(=O)NC(=O)COC(=O)c1ccc2c(c1)C(=O)N(Cc1ccccc1)C2=O | 9.64 | 6.51 µM [falling, single point] | 6.51 µM [falling, single point]
COc1ccc(C(=O)N/N=C/c2ccccc2OC(=O)c2ccccc2)cc1 | -0.794 | 29.1 µM [falling, single point] | –
O=C(Nc1cc(C(F)(F)F)ccc1N1CCOCC1)C1=NN(c2ccccc2)C(=O)CC1 | -10.9 | 18.4 µM [falling, partial curve] | –
Cc1ccc(NC(=O)CCc2nc(-c3cccs3)no2)c(Br)c1 | – | 6.51 µM [rising, partial curve] | –
COc1ccc2c(-c3cccnc3)cc(=O)[nH]c2c1 | – | 6.51 µM [rising, partial curve] | 6.51 µM [rising, single point]
Cc1cc(Cl)ccc1OCCCC(=O)N1CCCCC1 | -7.5 | 3.26 µM [rising, single point] | 2.91 µM [rising, single point]
CCOc1cc(N2CCOCC2)c(OCC)cc1NC(=O)Cc1cccc(OC)c1 | -5.16 | 0.116 µM [rising, full curve, poor fit] | –
CS(=O)(=O)N1CCc2cc(S(=O)(=O)NCCNS(=O)(=O)c3ccc4c(c3)CCN4S(C)(=O)=O)ccc21 | -56.4 | 0.184 µM [falling, full curve] | 0.103 µM [falling, full curve]
